Test results from article PMC5352298 (Pharmacological research, 2016).

Assays:
rat sciatic nerve = experiment: Sciatic nerve compound action potential; conditions: 1mM
[1] = system: mice (acetic-acid induced abdominal constriction); conditions: cited from earlier work

## CCN(CC)CC(=O)Nc1c(C)cccc1C [lidocaine, Lidocaine]
Rat sciatic nerve; 0.2 Hz
  peak-to-peak area ratio (PAR) of A and C fibers, tonic stimulation: significantly decreased the PAR value
Rat sciatic nerve; 40 Hz, p<0.001
  ratio between last and first CAP (Δf), phasic stimulation: 38.5%

## COc1ccc2cc([C@H](C)C(=O)O)ccc2c1 [naproxen]
[1]
  ED50 in the writhing model: 13 mg/kg
